Results reported in publication PMC11462610, “PpBBX32 and PpZAT5 modulate temperature-dependent and tissue-specific anthocyanin accumulation in peach fruit”.
A negative result means that nothing was seen under these conditions. At least one verdict was read from the data and is not stated in words by the source. Tags and fusion partners may be left off the protein sequences shown.

Biological target: T1, PpBBX32 (Prunus persica) (UniProt A0A251PTV0)
T1 sequence (looked up): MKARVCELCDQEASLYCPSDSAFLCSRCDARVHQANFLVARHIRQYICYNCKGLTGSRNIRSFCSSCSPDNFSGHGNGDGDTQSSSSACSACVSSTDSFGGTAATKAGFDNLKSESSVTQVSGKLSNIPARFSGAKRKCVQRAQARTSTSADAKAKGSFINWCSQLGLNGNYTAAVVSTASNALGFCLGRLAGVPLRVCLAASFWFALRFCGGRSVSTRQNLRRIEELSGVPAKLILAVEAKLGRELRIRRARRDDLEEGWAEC
Experiment: EMSA
Details: LightShift Chemiluminescent EMSA kit (Thermo), biotin-labeled probes; pH and temperature not stated; recombinant protein; residues 1-264; protein details: N-terminal His-trigger factor (pColdTF fusion)

“CAGCTGTGACGTTCAAACCATGTCCACTGACACTA (double strand) [proPpMYB10.1 G-box1&2-mut]”: no binding.
